From the supplement of paper PMC6078165
± gives the standard deviation of the averaged measurements. The reference is the same well before dosing, and untreated signal decays as well.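 Fibroblast labels name human fibroblasts: mostly primary ones from tissues such as uterus (C12385, HUF), lung (H6013), bone (Hs27A), adrenal (HADF) and skin (WS1), plus mammary HMF and breast cancer-associated Hs343T. The cancer cells are basal-like or mesenchymal-like triple-negative breast cancer lines. The paper calls a changed response a hit when it shifts by more than 3x the replicate standard deviation. The tissue of the other fibroblasts is not given here.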

System: Hs578T
Assay: relative JC-1 red fluorescence (viability) vs pre-drug, coculture with fibroblast (fraction); higher = more viable cancer cells
Protocol: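 JC-1 labelled TNBC cells cocultured 1:1 (1,500 cells each) with CellTrace Violet stained primary or stromal fibroblasts in 384-well plates in FluoroBrite medium, treated with one of 42 anticancer drugs at 0.1, 1, 10 or 100 uM. JC-1 red fluorescence (mitochondrial integrity in cancer cells only) was read by plate reader every 8 h for 72 h. Values are normalised to each well's pre-drug value. The stock of one drug was tenfold lower, so its dose labels may be too high.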

C[C@]12CC[C@@H]3c4ccc(O)cc4C[C@@H](CCCCCCCCC[S+]([O-])CCCC(F)(F)C(F)(F)F)[C@H]3[C@@H]1CC[C@@H]2O (stereo partly drawn) [Fulvestrant]
relative JC-1 red fluorescence
Settings	8 h	16 h	24 h	32 h	40 h	48 h	56 h	64 h	72 h
10 µM	0.904 ± 0.013	0.864 ± 0.023	0.819 ± 0.031	0.793 ± 0.04	0.761 ± 0.046	0.731 ± 0.046	0.728 ± 0.049	0.688 ± 0.046	0.671 ± 0.049
100 µM	0.86 ± 0.17	0.93 ± 0.057	0.877 ± 0.061	0.852 ± 0.075	0.81 ± 0.065	0.77 ± 0.072	0.759 ± 0.08	0.715 ± 0.071	0.698 ± 0.069

relative JC-1 red fluorescence
Settings	8 h	16 h	24 h	32 h	40 h	48 h	56 h	64 h	72 h
10 µM, coculture fibroblast: C12385	0.9075 ± 0.0088	0.856 ± 0.023	0.781 ± 0.019	0.735 ± 0.013	0.683 ± 0.029	0.653 ± 0.034	0.625 ± 0.037	0.605 ± 0.045	0.596 ± 0.04
10 µM, coculture fibroblast: H6013	0.957 ± 0.027	0.934 ± 0.056	0.85 ± 0.054	0.834 ± 0.071	0.801 ± 0.093	0.782 ± 0.1	0.758 ± 0.11	0.749 ± 0.12	0.71 ± 0.13
10 µM, coculture fibroblast: H6019	0.8744 ± 0.0053	0.824 ± 0.015	0.754 ± 0.0098	0.682 ± 0.014	0.639 ± 0.016	0.612 ± 0.013	0.583 ± 0.023	0.56 ± 0.022	0.538 ± 0.031
10 µM, coculture fibroblast: H6076	0.898 ± 0.019	0.8527 ± 0.005	0.817 ± 0.017	0.81207 ± 0.00067	0.7863 ± 0.0067	0.8 ± 0.019	0.778 ± 0.021	0.771 ± 0.031	0.76 ± 0.033
10 µM, coculture fibroblast: H6231	0.835 ± 0.18	0.833 ± 0.2	0.854 ± 0.027	0.899 ± 0.11	0.841 ± 0.089	0.81 ± 0.074	0.736 ± 0.052	0.721 ± 0.063	0.711 ± 0.093
10 µM, coculture fibroblast: HADF	0.973 ± 0.013	0.9362 ± 0.0092	0.8745 ± 0.0064	0.8431 ± 0.0083	0.808 ± 0.015	0.78 ± 0.016	0.753 ± 0.011	0.74 ± 0.0093	0.7 ± 0.016
10 µM, coculture fibroblast: HCFa	0.985 ± 0.016	0.853 ± 0.15	0.915 ± 0.082	0.856 ± 0.073	0.796 ± 0.078	0.779 ± 0.096	0.753 ± 0.1	0.743 ± 0.11	0.718 ± 0.13
10 µM, coculture fibroblast: HCPF	0.876 ± 0.17	0.856 ± 0.16	0.92 ± 0.073	0.883 ± 0.059	0.836 ± 0.067	0.809 ± 0.071	0.785 ± 0.057	0.744 ± 0.059	0.723 ± 0.067
10 µM, coculture fibroblast: HHSteC	0.9202 ± 0.0037	0.8628 ± 0.0048	0.7616 ± 0.0024	0.715 ± 0.013	0.655 ± 0.012	0.619 ± 0.023	0.588 ± 0.021	0.561 ± 0.026	0.518 ± 0.023
10 µM, coculture fibroblast: HMF	0.844 ± 0.022	0.843 ± 0.034	0.839 ± 0.089	0.81 ± 0.034	0.747 ± 0.026	0.72092 ± 0.00038	0.684 ± 0.024	0.659 ± 0.031	0.642 ± 0.043
10 µM, coculture fibroblast: HPFa	0.813 ± 0.088	0.9377 ± 0.0071	0.88 ± 0.029	0.847 ± 0.037	0.81 ± 0.035	0.784 ± 0.034	0.751 ± 0.026	0.736 ± 0.021	0.695 ± 0.027
10 µM, coculture fibroblast: HUF	0.935 ± 0.021	0.876 ± 0.028	0.821 ± 0.028	0.731 ± 0.037	0.691 ± 0.046	0.658 ± 0.038	0.627 ± 0.033	0.598 ± 0.02	0.582 ± 0.011
10 µM, coculture fibroblast: Hs27A	0.936 ± 0.019	0.921 ± 0.013	0.886 ± 0.0037	0.854 ± 0.011	0.7941 ± 0.0027	0.775 ± 0.012	0.743 ± 0.011	0.736 ± 0.015	0.688 ± 0.012
10 µM, coculture fibroblast: Hs343T	0.936 ± 0.014	0.867 ± 0.013	0.797 ± 0.011	0.795 ± 0.01	0.737 ± 0.016	0.718 ± 0.028	0.686 ± 0.028	0.659 ± 0.025	0.652 ± 0.033
10 µM, coculture fibroblast: WS1	0.9 ± 0.022	0.878 ± 0.034	0.797 ± 0.044	0.722 ± 0.062	0.675 ± 0.065	0.663 ± 0.075	0.636 ± 0.075	0.621 ± 0.071	0.606 ± 0.081
100 µM, coculture fibroblast: C12385	0.986 ± 0.014	0.9531 ± 0.0035	0.954 ± 0.027	0.915 ± 0.0021	0.868 ± 0.019	0.859 ± 0.03	0.855 ± 0.049	0.86 ± 0.042	0.86 ± 0.034
100 µM, coculture fibroblast: H6013	0.952 ± 0.052	0.937 ± 0.051	0.906 ± 0.045	0.914 ± 0.05	0.901 ± 0.038	0.892 ± 0.045	0.874 ± 0.039	0.865 ± 0.013	0.834 ± 0.013
100 µM, coculture fibroblast: H6019	0.881 ± 0.03	0.832 ± 0.068	0.824 ± 0.042	0.759 ± 0.048	0.737 ± 0.046	0.721 ± 0.041	0.692 ± 0.025	0.666 ± 0.01	0.6371 ± 0.0058
100 µM, coculture fibroblast: H6076	0.83 ± 0.037	0.966 ± 0.023	0.931 ± 0.02	0.928 ± 0.022	0.907 ± 0.028	0.908 ± 0.046	0.907 ± 0.053	0.897 ± 0.069	0.893 ± 0.074
100 µM, coculture fibroblast: H6231	0.844 ± 0.025	0.772 ± 0.11	0.789 ± 0.018	0.782 ± 0.11	0.765 ± 0.046	0.852 ± 0.11	0.983 ± 0.021	0.971 ± 0.038	0.95 ± 0.052
100 µM, coculture fibroblast: HADF	0.898 ± 0.098	0.79 ± 0.14	0.915 ± 0.083	0.891 ± 0.095	0.87 ± 0.091	0.851 ± 0.089	0.835 ± 0.1	0.832 ± 0.11	0.802 ± 0.11
100 µM, coculture fibroblast: HCFa	0.949 ± 0.071	0.924 ± 0.1	0.904 ± 0.13	0.856 ± 0.1	0.732 ± 0.0045	0.707 ± 0.022	0.71 ± 0.015	0.755 ± 0.097	0.677 ± 0.029
100 µM, coculture fibroblast: HCPF	0.734 ± 0.015	0.87 ± 0.012	0.8639 ± 0.0032	0.873 ± 0.17	0.9667 ± 0.0062	0.9545 ± 0.0027	0.9525 ± 0.0019	0.913 ± 0.015	0.8871 ± 0.0061
100 µM, coculture fibroblast: HHSteC	0.903 ± 0.11	0.864 ± 0.1	0.854 ± 0.12	0.886 ± 0.063	0.841 ± 0.11	0.83 ± 0.12	0.894 ± 0.025	0.914 ± 0.012	0.85 ± 0.044
100 µM, coculture fibroblast: HMF	0.81 ± 0.0098	0.86 ± 0.017	0.827 ± 0.13	0.806 ± 0.075	0.95 ± 0.045	0.837 ± 0.16	0.967 ± 0.042	0.954 ± 0.053	0.8898 ± 0.0016
100 µM, coculture fibroblast: HPFa	0.98 ± 0.025	0.943 ± 0.041	0.896 ± 0.03	0.871 ± 0.034	0.847 ± 0.029	0.834 ± 0.03	0.811 ± 0.034	0.804 ± 0.03	0.768 ± 0.024
100 µM, coculture fibroblast: HUF	0.919 ± 0.01	0.853 ± 0.011	0.9064 ± 0.0068	0.845 ± 0.013	0.812 ± 0.019	0.795 ± 0.0087	0.7679 ± 0.0056	0.764 ± 0.01	0.759 ± 0.01
100 µM, coculture fibroblast: Hs27A	0.9481 ± 0.0062	0.9289 ± 0.0042	0.911 ± 0.019	0.899 ± 0.047	0.874 ± 0.062	0.873 ± 0.071	0.861 ± 0.077	0.886 ± 0.092	0.841 ± 0.11
100 µM, coculture fibroblast: Hs343T	0.914 ± 0.015	0.863 ± 0.14	0.954 ± 0.041	0.949 ± 0.042	0.887 ± 0.027	0.869 ± 0.023	0.847 ± 0.017	0.8185 ± 0.0053	0.80316 ± 0.00034
100 µM, coculture fibroblast: WS1	0.918 ± 0.061	0.885 ± 0.025	0.841 ± 0.015	0.7795 ± 0.0076	0.7403 ± 0.0073	0.7374 ± 0.0028	0.715 ± 0.0081	0.7206 ± 0.0025	0.7141 ± 0.0062
